A short description of the experiment: qHTS Assay for Lipid Storage Modulators in Drosophila S3 Cells.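 On cell number change: cells counted by Cell Tracker Red CMTPX staining in the red channel.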 The note with it: BODIPY lipid droplet fluorescence, 18-24 h; for cell number change: measured here: cell count max response, cells fed with added oleic acid. The essentials:
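Laser-scanning cytometry quantifies lipid droplet accumulation (500–530 nm total intensity; droplet/cell object ratio) in oleic acid-fed (400 uM added) Drosophila S3 cells treated with a concentration series. 20 uM Triacsin C defined 100% inhibition.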
On the technique in general: qHTS replaces the single test concentration by a dilution series.

The mark [1] stands for this setting: measured here: lipid fluorescence (Fed channel) AC50, cells fed with added oleic acid.
The mark [2] stands for this setting: measured here: cell number channel AC50, cells fed with added oleic acid.

Among the data in PubChem BioAssay AID2685 (National Center for Advancing Translational Sciences (NCATS), 2010) are AC50 and cell number change values, retold here.

This is one part of the list. Shown are side measurements of this screen, not its main read-out; they come without a call. Most of these compounds were active or inconclusive in the main read-out, so they are no random draw. The note in brackets gives the kind of curve behind each potency; many fits are weak.

The AC50 is the concentration giving half of the maximal activity seen. High values mean weaker potency, low ones greater potency. In the case of `COc1cccc(N2CCN(CC(=O)c3c[nH]c4ccc(OC)cc34)CC2C)c1` (stereo not given), the AC50 under setting [1] is 0.651 µM [rising, single point]. As to `COc1ccc(CC(=O)NNC(=O)c2ccc(SCc3cc(F)ccc3F)c([N+](=O)[O-])c2)cc1`, the cell number change is -23.5%. Also, under setting [1], the AC50 is 2.91 µM [falling, full curve].

Take `Nc1nc(N)c(C=Nc2ccc(Br)cc2)c(Nc2ccc(Br)cc2)n1`: the cell number change is -72%. In addition, the AC50 under setting [2] is 13 µM [falling, partial curve]. Also, under setting [1], the AC50 is 11.6 µM [falling, partial curve]. On to `O=C(Nc1nccs1)c1ccc(Cl)c(S(=O)(=O)N2CCCCC2)c1`, for which the cell number change is -6.44%. Further, the AC50 under setting [1] is 6.51 µM [rising, single point]. Regarding `COC(=O)c1c(CCl)noc1C(=O)NCC1CCCO1` (stereo not given), the cell number change stood at 4%. Under setting [2], the AC50 was 7.31 µM [falling, partial curve]. Regarding `CCOC(=O)C1CCN(Cc2ccc(F)c(F)c2)CC1`, the cell number change was -133%. Besides, the AC50 under setting [2] is 32.6 µM [falling, partial curve]. In addition, the AC50 under setting [1] is 0.116 µM [falling, full curve, poor fit]. Consider `N#Cc1ccc(OCC(=O)Nc2ccccc2NS(=O)(=O)c2cccs2)cc1`, for which the cell number change came out at 1.83%.

As to `C[C@@H]1C=C[C@](Cc2ccccc2)(C(=O)NCCc2c[nH]c3ccccc23)N1C(=O)c1ccccc1`, the cell number change is -34.8%. Moreover, the AC50 under setting [2] was 23.1 µM [falling, single point]. For the same compound, the AC50 under setting [1] was 23.1 µM [falling, single point]. Turning to `CCCCNC(=O)COC(=O)c1ccc(Cl)c(S(N)(=O)=O)c1`, the cell number change was -28.4%. Further, the AC50 under setting [1] was 29.1 µM [falling, single point]. In the case of `COc1nc(-c2ccc(C)cc2)ccc1-c1noc(-c2ccco2)n1`, the cell number change was -32.2%. The AC50 under setting [2] is 32.6 µM [falling, single point]. As to `CCC(=O)c1ccc(O)c(OC)c1`, the cell number change was determined as 3.13%. For the same compound, the AC50 under setting [1] is 6.51 µM [falling, single point]. Regarding `NS(=O)(=O)c1ccc(N/N=C/c2cn(-c3ccccc3)nc2-c2cccs2)cc1`, the cell number change was -54.9%. Further, the AC50 under setting [2] is 29.1 µM [falling, single point]. The concentration at half-maximal activity (AC50) under setting [1] was 29.1 µM [falling, single point].

With `c1ccc(-c2ccccc2OCCCCN2CCCCCC2)cc1`, the cell number change came out at 11.1%. As to `COC(=O)N1C(=O)[C@](c2ccccc2)(C2CCCCC2)N1C(=O)OC`, the cell number change came out at 16.5%. Take `COc1cccc2sc(N(CCN(C)C)C(=O)/C=C/c3cccs3)nc12`: the cell number change was -21.4%. For the same compound, the AC50 under setting [1] is 29.1 µM [falling, single point]. In the case of `Cc1cc2c(c(=O)n1C1CC1)C(c1cccc(Cl)c1)C(C#N)=C(N)O2` (stereo not given), the cell number change is 15%. Also, the AC50 under setting [1] was 2.06 µM [rising, single point].

Turning to `CCOC(=O)N1CCN(c2c(NCC3CCN(Cc4cccc(C)c4)CC3)c(=O)c2=O)CC1`, the cell number change is -95.7%. Under setting [2], the AC50 is 29.1 µM [falling, single point]. Under setting [1], the concentration at half-maximal activity (AC50) is 29.1 µM [falling, single point]. On to `Cc1ccc(NC(=O)c2ccc(NCCc3ccccc3)c([N+](=O)[O-])c2)cc1F`, for which the cell number change turned out to be 10.3%.

As for `O=c1c2ccccc2sn1-c1ccc(F)cc1`, the cell number change is -79.4%. In addition, the AC50 under setting [2] was 3.66 µM [falling, full curve]. For the same compound, under setting [1], the AC50 was 4.61 µM [falling, full curve]. Turning to `COc1ccc(NC(=O)CCNC(=O)N2CC(=O)Nc3ccccc32)c(OC)c1`, the cell number change was found to be 22.1%. The AC50 under setting [1] is 29.1 µM [rising, single point].

Regarding `O=C(N1CCOCC1)N(Cc1cccs1)C1CCCC1`, the AC50 was 0.92 µM [rising, full curve] under setting [2] and 0.058 µM [falling, full curve, poor fit] under setting [1]. As for `CCn1c(=O)c2cc(C(=O)N3CCN(C)CC3)sc2c2ccccc21`, the cell number change was determined as 51.5%. Moreover, the AC50 under setting [2] is 3.66 µM [rising, partial curve]. Also, the AC50 under setting [1] was 1.46 µM [rising, partial curve].

On to `COc1ccc(NS(=O)(=O)c2cc(NC(=O)Cc3cccs3)ccc2C)cc1`, for which the cell number change is 28.4%. Moreover, the AC50 under setting [1] was 10.3 µM [rising, partial curve, poor fit]. For the compound `CCOc1ccc(CNC(=O)CCc2cn(C)c3ccccc23)cc1`, the cell number change was -0.709%. The AC50 under setting [2] is 0.00461 µM [falling, full curve, poor fit]. In the case of `CCN(CC(=O)Nc1ccc2c(c1)OCCO2)C(=O)c1cc(Cl)nc2ccccc12`, the cell number change worked out at 10.6%. Moreover, the AC50 under setting [1] was 23.1 µM [rising, single point]. As to `Cn1nc(C(=O)NCCc2ccc(Cl)cc2)c2c1-c1ccccc1S(=O)(=O)C2`, the cell number change came out at 16.7%. For the same compound, the AC50 under setting [1] is 29.1 µM [falling, single point]. As to `Cc1cc2c(o1)CC(C)(C)CC2=O`, the cell number change was 61.3%. For the compound `COc1cccc(NC(=O)N2CCCC2C(=O)Nc2cc(C)ccc2OC)c1` (stereo not given), the cell number change was 2.08%.

Regarding `CCCC(=O)Nc1ccc(-c2nc3cc(C)c(C)cc3o2)cc1`, the cell number change was -1.07%. The AC50 under setting [1] is 5.8 µM [falling, partial curve]. `CC1CCN(S(=O)(=O)c2ccc3c(c2)N(CC(=O)N(C)Cc2ccco2)C(=O)CO3)CC1`: the cell number change was -11.2%. The AC50 under setting [1] was 2.31 µM [falling, partial curve].

`Cn1c(CSCc2ccccc2Cl)nnc1SCC(=O)Nc1nccs1`: under setting [1], the concentration at half-maximal activity (AC50) was 2.31 µM [rising, partial curve]. Regarding `COc1cc(C)c(Cl)cc1S(=O)(=O)n1ccnc1C`, the cell number change is -11.7%. As to `CCOC(=O)C1=C(C)Nc2ccccc2N=C1NC(=O)c1cccc(S(=O)(=O)N(C)C)c1`, under setting [1], the AC50 is 0.731 µM [falling, single point]. As for `CCCCCc1ccc(C(=O)CCC(=O)OCC(=O)N(CC)c2c(N)n(Cc3ccccc3)c(=O)[nH]c2=O)cc1`, the AC50 under setting [2] was 0.58 µM [rising, single point]. On to `NC(=O)c1nsc(C(=O)N(Cc2cccnc2)C(C(=O)NCc2ccc(F)cc2)c2ccc(O)cc2)c1N` (stereo not given), for which the cell number change is -8.97%. In the case of `CCCCN1C(=O)C(=O)N(CC(=O)N2CCc3ccccc32)C1=O`, the cell number change came out at 12.1%. In addition, the AC50 under setting [1] is 16.4 µM [rising, single point]. Consider `CC1CCN(c2ccc(NC(=O)c3ccc([N+](=O)[O-])o3)cc2)CC1`, for which the AC50 under setting [1] was 8.2 µM [falling, partial curve]. Turning to `Cc1cc(-n2[nH]c(C)c(C)c2=O)nc(-c2ccccc2O)n1`, the cell number change is -4.98%. Moreover, the AC50 under setting [1] is 5.8 µM [rising, full curve, poor fit].

For `CCCNc1c(NC(=O)c2ccc3c(c2)OCO3)c(=O)oc2ccccc12`, the cell number change came to 11.2%. Under setting [1], the AC50 was 0.82 µM [rising, single point]. Take `Cc1ccc(C)c(CSC2=NCCN2C(=O)c2cccs2)c1`: the cell number change is -40.3%. The AC50 under setting [2] was 18.4 µM [falling, single point]. Moreover, under setting [1], the AC50 is 7.31 µM [falling, partial curve]. In the case of `O=C(NCC(c1cccs1)N1CCOCC1)c1ccc(Br)o1` (stereo not given), the cell number change came out at 57%. Moreover, under setting [2], the AC50 was 29.1 µM [rising, single point]. In addition, the AC50 under setting [1] was 0.517 µM [rising, single point].

`Cc1ccc(-c2n[nH]c(=S)nc2-c2ccc(C)cc2)cc1`: under setting [1], the AC50 was 20.6 µM [falling, partial curve]. `Cc1ccc(NC(=O)C2CCCN(c3ncnc4c3nc3n4CCCCC3)C2)nc1` (stereo not given): the cell number change is -5.73%. In addition, the AC50 under setting [2] was 0.231 µM [falling, full curve, poor fit]. In addition, the AC50 under setting [1] is 0.651 µM [rising, single point]. With `Cc1ccc(Cn2c(SCCN3CCOCC3)nc3c2c(=O)n(C)c(=O)n3C)cc1`, the cell number change is -20.1%. Also, under setting [1], the AC50 is 13 µM [rising, partial curve]. Regarding `CCOC(=O)c1c(NC(=O)Cn2nc(C(F)F)cc2C(F)F)sc(C)c1C`, the cell number change was 78.5%. Moreover, under setting [2], the AC50 is 18.4 µM [rising, single point]. Turning to `CN(CC(=O)Nc1cccc(F)c1)C(=O)c1sc2ccccc2c1Cl`, the cell number change was -28.3%. In addition, the AC50 under setting [1] was 9.2 µM [falling, partial curve, poor fit]. Consider `Cn1c(SCC(=O)N/N=C/C=C/c2ccccc2[N+](=O)[O-])nc2ccccc21`, for which the cell number change was -10.4%. For the same compound, under setting [1], the AC50 is 0.731 µM [rising, single point].

Turning to `O=C(c1ccco1)N(Cc1ccco1)c1ccc(O)cc1`, the cell number change came to 21.2%. Further, the AC50 under setting [2] was 0.0517 µM [rising, full curve, poor fit]. Further, the AC50 under setting [1] was 0.00461 µM [falling, full curve, poor fit]. On to `O=C(CSc1nnc(CNC(=O)c2ccco2)o1)NC1CCCC1`, for which the cell number change is -61%. Further, the half-maximal activity concentration (AC50) under setting [2] is 16.4 µM [falling, single point]. For the same compound, under setting [1], the AC50 was 6.51 µM [falling, single point]. For the compound `Cc1ccc(-c2nc(CS(=O)(=O)CC(=O)Nc3cc(F)ccc3F)c(C)o2)cc1`, the cell number change is 8.65%. Under setting [1], the AC50 was 0.461 µM [rising, partial curve, poor fit]. With `COc1ccccc1NC(=O)Nc1nc(CC(=O)N2CCN(c3ccccc3OC)CC2)cs1`, the cell number change turned out to be 50.2%. For the same compound, the AC50 under setting [2] is 1.3 µM [rising, full curve]. As for `COCCCNC(=O)c1cccn2c(=O)c3cc4ccccc4cc3nc12`, the cell number change was -22.6%.

For the compound `CC1CCN(C(=O)CSc2nnc(-c3cccnc3)o2)CC1`, the cell number change is 33.3%. Turning to `COC(=O)CCCn1c(C)cc(C(=O)CCl)c1C`, the cell number change is -14.4%. Besides, the AC50 under setting [2] is 0.461 µM [rising, single point]. In addition, the AC50 under setting [1] is 23.1 µM [falling, single point].

With `COc1ccc(N2CCN(C(=O)C3CCCN(c4ncnc5c4nc4n5CCCCC4)C3)CC2)cc1` (stereo not given), the cell number change is -4.2%. Further, the AC50 under setting [1] was 6.51 µM [rising, single point]. Take `CC(C)c1ccc(/C=C2\C(=N)N3N=C(CC(=O)N4CCCCC4)SC3=NC2=O)cc1`: the cell number change was -9.13%. For the same compound, the AC50 under setting [1] was 0.206 µM [rising, full curve, poor fit]. Take `COc1ccc(CCNC(=O)CSc2nnnn2Cc2ccc3c(c2)OCO3)cc1OC`: the cell number change is -17.3%. Besides, under setting [1], the AC50 is 13 µM [falling, partial curve]. On to `CC(=O)c1cc(CC=C(C)C)c(O)c(CC=C(C)C)c1O`, for which the cell number change was -22.7%. Besides, the concentration at half-maximal activity (AC50) under setting [2] is 0.103 µM [falling, full curve, poor fit].

Regarding `CCOc1ccccc1NC(=O)CSc1nc2cccnc2n1C`, the cell number change is -13.2%. In addition, the AC50 under setting [1] was 0.92 µM [rising, full curve, poor fit].
